Assay results: PMC3514159
No constants are given. Whether binding was seen depends on the method and setting. For some assays here: Binding seen in cells or lysates may run through a third protein. Some entries that bind do so weakly or less than the wild type.

The chains behind the UniProt entries cited, without tags or fusion partners.
UniProt P09022: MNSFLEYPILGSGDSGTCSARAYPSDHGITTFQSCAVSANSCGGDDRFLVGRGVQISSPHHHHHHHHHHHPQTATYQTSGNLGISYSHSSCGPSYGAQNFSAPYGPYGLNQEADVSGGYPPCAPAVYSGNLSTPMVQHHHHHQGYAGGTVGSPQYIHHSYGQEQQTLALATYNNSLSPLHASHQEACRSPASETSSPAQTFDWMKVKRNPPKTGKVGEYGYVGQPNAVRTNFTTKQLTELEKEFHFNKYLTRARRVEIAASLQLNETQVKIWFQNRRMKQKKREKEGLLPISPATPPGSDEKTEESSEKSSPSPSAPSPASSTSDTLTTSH

B1: VN173-PBX1A (protein, UniProt P40424-1 1-430)
chain: MDEQPRLMHSHAGVGMAGHPGLSQHLQDGAGGTEGEGGRKQDIGDILQQIMTITDQSLDEAQARKHALNCHRMKPALFNVLCEIKEKTVLSIRGAQEEEPTDPQLMRLDNMLLAEGVAGPEKGGGSAAAAAAAAASGGAGSDNSVEHSDYRAKLSQIRQIYHTELEKYEQACNEFTTHVMNLLREQSRTRPISPKEIERMVSIIHRKFSSIQMQLKQSTCEAVMILRSRFLDARRKRRNFNKQATEILNEYFYSHLSNPYPSEEAKEELAKKCGITVSQVSNWFGNKRIRYKKNIGKFQEEANIYAAKTAVTATNVSAHGSQANSPSTPNSAGSSSSFNMSNSGDLFMSVQSLNGDSYQGAQVGANVQSQVDTLRHVISQTGGYSDGLAASQMYSPQGISANGGWQDATTPSSVTSPTEGPGSVHSDTSN
B2: thyroid hormone receptor interactor 6 (protein, UniProt Q15654 1-476)
chain: MSGPTWLPPKQPEPARAPQGRAIPRGTPGPPPAHGAALQPHPRVNFCPLPSEQCYQAPGGPEDRGPAWVGSHGVLQHTQGLPADRGGLRPGSLDAEIDLLSSTLAELNGGRGHASRRPDRQAYEPPPPPAYRTGSLKPNPASPLPASPYGGPTPASYTTASTPAGPAFPVQVKVAQPVRGCGPPRRGASQASGPLPGPHFPLPGRGEVWGPGYRSQREPGPGAKEEAAGVSGPAGRGRGGEHGPQVPLSQPPEDELDRLTKKLVHDMNHPPSGEYFGQCGGCGEDVVGDGAGVVALDRVFHVGCFVCSTCRAQLRGQHFYAVERRAYCEGCYVATLEKCATCSQPILDRILRAMGKAYHPGCFTCVVCHRGLDGIPFTVDATSQIHCIEDFHRKFAPRCSVCGGAIMPEPGQEETVRIVALDRSFHIGCYKCEECGLLLSSEGECQGCYPLDGHILCKACSAWRIQELSATVTTDC
B3: zinc finger and BTB domain containing 16 (protein, UniProt Q05516 1-673)
chain: MDLTKMGMIQLQNPSHPTGLLCKANQMRLAGTLCDVVIMVDSQEFHAHRTVLACTSKMFEILFHRNSQHYTLDFLSPKTFQQILEYAYTATLQAKAEDLDDLLYAAEILEIEYLEEQCLKMLETIQASDDNDTEATMADGGAEEEEDRKARYLKNIFISKHSSEESGYASVAGQSLPGPMVDQSPSVSTSFGLSAMSPTKAAVDSLMTIGQSLLQGTLQPPAGPEEPTLAGGGRHPGVAEVKTEMMQVDEVPSQDSPGAAESSISGGMGDKVEERGKEGPGTPTRSSVITSARELHYGREESAEQVPPPAEAGQAPTGRPEHPAPPPEKHLGIYSVLPNHKADAVLSMPSSVTSGLHVQPALAVSMDFSTYGGLLPQGFIQRELFSKLGELAVGMKSESRTIGEQCSVCGVELPDNEAVEQHRKLHSGMKTYGCELCGKRFLDSLRLRMHLLAHSAGAKAFVCDQCGAQFSKEDALETHRQTHTGTDMAVFCLLCGKRFQAQSALQQHMEVHAGVRSYICSECNRTFPSHTALKRHLRSHTGDHPYECEFCGSCFRDESTLKSHKRIHTGEKPYECNGCGKKFSLKHQLETHYRVHTGEKPFECKLCHQRSRDYSAMIKHLRTHNGASPYQCTICTEYCPSLSSMQKHMKGHKPEEIPPDWRIEKTYLYLCYV

What was measured:
VC155-Hoxa1 (mouse) [1] = molecular target: VC155-Hoxa1 (mouse) (UniProt P09022); assay: split reporter; BiFC in transfected COS7 cells: VN173, VN173-PBX1A, VC155 and VC155-Hoxa1 in combinations; Venus fluorescence
Hoxa1 (mouse) = Hoxa1 (mouse) (UniProt P09022); assay: two-hybrid; DB-Hoxa1 (Gal4 DNA binding domain) in MATα Y8930 mated with the AD-hORF library (human ORFeome v3.1) in MATa Y8800; 30°C; selection on Sc-L-T-H + 1 mM 3AT, retest on Sc-L-T-H, Sc-L-T-A and Sc-L-T-H-A+3AT
VC155-Hoxa1 (mouse) [2] = molecular target: VC155-Hoxa1 (mouse) (UniProt P09022); assay: split reporter; BiFC in transfected MCF10A cells: VN173-hORF with VC155-Hoxa1; fixed 24 h after transfection, confocal microscopy

Binder | binding (VC155-Hoxa1 (mouse) [1]) | binding (Hoxa1 (mouse)) | binding (VC155-Hoxa1 (mouse) [2])
B1 | binds | – | –
B2 | – | binds | binds
B3 | – | binds | binds
